For two substances, binding results are on record in publication doi:10.1101/2020.10.21.349357.

Sequences of proteins named here, by UniProt entry; tags and fusion partners are left off. A change or cut given only in a name is not applied to a line headed by its entry.
UniProt O88522, whole entry: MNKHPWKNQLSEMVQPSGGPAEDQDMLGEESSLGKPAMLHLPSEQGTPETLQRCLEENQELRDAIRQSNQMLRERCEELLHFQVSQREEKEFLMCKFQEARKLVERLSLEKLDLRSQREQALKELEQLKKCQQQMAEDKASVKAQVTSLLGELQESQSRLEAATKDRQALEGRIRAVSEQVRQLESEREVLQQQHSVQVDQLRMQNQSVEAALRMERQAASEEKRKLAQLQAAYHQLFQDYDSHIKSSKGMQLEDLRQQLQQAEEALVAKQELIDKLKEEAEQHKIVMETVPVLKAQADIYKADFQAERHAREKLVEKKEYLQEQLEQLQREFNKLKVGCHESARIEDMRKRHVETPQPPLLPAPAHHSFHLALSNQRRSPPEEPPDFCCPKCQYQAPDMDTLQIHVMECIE
UniProt Q9Y6K9, whole entry: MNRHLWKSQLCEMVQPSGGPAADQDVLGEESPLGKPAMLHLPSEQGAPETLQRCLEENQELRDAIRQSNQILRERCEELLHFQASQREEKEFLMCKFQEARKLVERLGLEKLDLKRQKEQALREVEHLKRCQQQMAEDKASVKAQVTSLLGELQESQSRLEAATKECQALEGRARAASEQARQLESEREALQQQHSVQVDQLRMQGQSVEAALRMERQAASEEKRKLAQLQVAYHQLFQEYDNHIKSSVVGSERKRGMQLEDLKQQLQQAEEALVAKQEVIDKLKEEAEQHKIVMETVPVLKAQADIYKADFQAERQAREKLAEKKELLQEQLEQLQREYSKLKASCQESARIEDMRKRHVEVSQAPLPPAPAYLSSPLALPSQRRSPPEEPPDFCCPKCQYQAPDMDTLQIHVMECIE

These are yes or no findings as the source states them, for the method shown. In cells and extracts the contact can be indirect. Some entries that bind do so weakly or less than the wild type. For some of these results: Tags and fused reporters may be left off the sequences shown.

In experiment [1] the target is T1, HA-tagged N4BP1 (full length) (human) (UniProt O75113).
T1 sequence: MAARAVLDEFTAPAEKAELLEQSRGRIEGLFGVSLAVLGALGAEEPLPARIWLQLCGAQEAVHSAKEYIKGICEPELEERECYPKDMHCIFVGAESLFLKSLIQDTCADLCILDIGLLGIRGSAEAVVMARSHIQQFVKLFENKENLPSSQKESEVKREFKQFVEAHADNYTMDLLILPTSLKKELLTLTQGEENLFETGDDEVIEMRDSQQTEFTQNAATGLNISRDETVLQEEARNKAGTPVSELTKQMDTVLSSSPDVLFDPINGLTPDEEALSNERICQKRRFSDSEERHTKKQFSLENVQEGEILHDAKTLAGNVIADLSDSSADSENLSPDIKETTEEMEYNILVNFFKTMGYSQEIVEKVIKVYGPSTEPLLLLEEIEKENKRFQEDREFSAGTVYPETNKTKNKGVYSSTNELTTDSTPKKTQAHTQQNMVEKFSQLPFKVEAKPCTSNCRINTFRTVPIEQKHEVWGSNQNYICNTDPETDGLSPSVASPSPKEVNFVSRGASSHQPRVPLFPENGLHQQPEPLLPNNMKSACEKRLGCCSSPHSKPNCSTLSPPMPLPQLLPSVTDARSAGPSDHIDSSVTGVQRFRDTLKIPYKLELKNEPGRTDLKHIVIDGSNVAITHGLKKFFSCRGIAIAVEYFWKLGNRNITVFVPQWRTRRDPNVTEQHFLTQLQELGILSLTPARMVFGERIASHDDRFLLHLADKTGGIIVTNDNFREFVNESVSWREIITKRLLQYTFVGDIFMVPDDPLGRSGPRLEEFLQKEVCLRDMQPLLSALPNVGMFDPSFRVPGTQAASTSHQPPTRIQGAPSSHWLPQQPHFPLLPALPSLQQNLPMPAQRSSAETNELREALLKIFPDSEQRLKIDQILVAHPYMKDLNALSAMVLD
In words: co-IP.

In experiment [2] the target is T2, HA-N4BP1 424-aa cleavage product (truncation mutant) (human) (UniProt O75113).
T2 sequence: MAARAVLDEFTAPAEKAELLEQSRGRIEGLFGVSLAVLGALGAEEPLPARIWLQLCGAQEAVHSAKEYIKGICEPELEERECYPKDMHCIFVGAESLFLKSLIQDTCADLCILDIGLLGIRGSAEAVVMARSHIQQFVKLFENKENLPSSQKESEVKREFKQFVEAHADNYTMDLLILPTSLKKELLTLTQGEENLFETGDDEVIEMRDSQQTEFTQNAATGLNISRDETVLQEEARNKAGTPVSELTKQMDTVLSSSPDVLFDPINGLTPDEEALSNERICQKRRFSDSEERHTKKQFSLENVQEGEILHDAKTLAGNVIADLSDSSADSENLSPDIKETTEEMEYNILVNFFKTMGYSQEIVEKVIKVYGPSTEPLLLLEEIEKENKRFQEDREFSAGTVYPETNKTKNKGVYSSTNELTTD
As to the kind of experiment: co-IP.

Experiment [3] concerns the target T3, HA-N4BP1 490-aa cleavage product (truncation mutant) (human) (UniProt O75113).
T3 sequence: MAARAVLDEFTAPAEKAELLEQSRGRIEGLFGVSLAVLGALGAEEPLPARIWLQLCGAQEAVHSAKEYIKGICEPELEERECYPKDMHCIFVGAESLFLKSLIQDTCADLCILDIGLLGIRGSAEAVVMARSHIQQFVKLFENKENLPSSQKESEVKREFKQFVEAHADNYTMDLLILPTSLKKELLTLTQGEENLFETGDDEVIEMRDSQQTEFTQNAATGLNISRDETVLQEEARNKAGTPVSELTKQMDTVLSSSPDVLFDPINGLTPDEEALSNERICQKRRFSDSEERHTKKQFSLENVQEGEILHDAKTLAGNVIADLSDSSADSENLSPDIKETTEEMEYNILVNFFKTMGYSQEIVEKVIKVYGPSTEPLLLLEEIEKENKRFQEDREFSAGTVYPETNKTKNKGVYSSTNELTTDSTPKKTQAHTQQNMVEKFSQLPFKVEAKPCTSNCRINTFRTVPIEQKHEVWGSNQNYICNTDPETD
As to the kind of experiment: co-IP.

In experiment [4] the target is endogenous NEMO of mouse peritoneal macrophages (mouse (endogenous in peritoneal macrophages)) (UniProt O88522). In words: cross-linking.

As to “Flag-tagged NEMO (from UniProt Q9Y6K9 1-419)”, the binding entry in experiment [1], in experiment [2] and in experiment [3] was “binds” throughout.

Regarding “endogenous NEMO of mouse peritoneal macrophages (from UniProt O88522 1-412)”, in experiment [4], the binding entry is “binds”.
